According to PubChem BioAssay AID651900 (Broad Institute, 2012):
This is one part of the list. The main result of the screen is listed elsewhere. These columns were measured beside it and carry no call.

Assay: NIH3T3 cell viability loss – plate reader, cherry-pick, two tests, cytotoxicity control, dose response (AID 651900)
Conditions: test 2 concentration series, at 26 µM

Row | Structure (SMILES) | activity
1 | COc1ccc([N+](=O)[O-])cc1C(=O)NC1CCN(Cc2ccccc2)CC1 | 0.517%
2 | O=C(Nc1ncc2c(n1)CC(c1cccc(Cl)c1)CC2=O)c1ccco1 (centres undefined) | 0.5%
3 | COc1ccc(C2c3c(-c4cc(Cl)c(C)cc4O)n[nH]c3C(=O)N2Cc2cccnc2)cc1OC (centres undefined) | -6.29%
4 | Cc1cccc(C(=O)NC2CCN(CC(=O)Nc3ccccc3Cl)CC2)c1 | -13.3%
5 | O=C(CSc1nc2c(c(=O)n1-c1ccccc1)SCC2)N1CCOCC1 | 1.96%
6 | O=C(Nc1ccc(Cl)c(-c2nc3ccccc3[nH]2)c1)c1cccnc1 | -6.18%
7 | O=C(Nc1cccnc1)c1ccc(N2CCOCC2)c([N+](=O)[O-])c1 | 6.82%
8 | COc1ccc(F)cc1C(=O)C1CCCN(C(=O)c2ccc(C(C)=O)s2)C1 (centres undefined) | -3.09%
9 | CCCN1CCN(C(=O)C2CCN(c3nnc(C)c4c(C)n(-c5ccc(C)cc5)nc34)CC2)CC1 | -8.58%
10 | CCCC(=O)Nc1cccc(NC(=O)c2ccc(C)c([N+](=O)[O-])c2)c1 | -1.93%
11 | C=C(C)n1c(=O)n(Cc2ccccc2C)c2ccccc21 | -17.7%
12 | COc1ccc(Nc2c(-c3ccc(OC)cc3)nc3cnccn23)cc1 | 1.26%
13 | CCOCCCNC(=O)CSc1nc2nc(C)c(Cc3ccccc3)c(C)n2n1 | -10.1%
14 | O=C(c1ccc(Br)s1)N1CCN(Cc2ccc3c(c2)OCO3)CC1 | -7.23%
15 | CC(=O)c1ccc(NC(=O)COC(=O)Cc2ccsc2)cc1 | -2.62%
16 | Cc1ccccc1-n1c(SCC(=O)N(C)C2CCS(=O)(=O)C2)nc2ccccc2c1=O (centres undefined) | -0.245%
17 | O=C(NC1CCCc2c1cnn2-c1cc(F)cc(F)c1)c1ccc[n+]([O-])c1 (centres undefined) | -1.71%

Row | Structure (SMILES) | activity
18 | Cc1ccc(Cc2c(C)nc3nc(SCC(=O)NCCCN4CCCCC4)nn3c2C)cc1 | 9.86%
19 | COc1ccc(CCNC(=O)c2cnc3n(c2=O)CCS3)cc1OC | 3.43%
20 | CC1=CC2=NC(=O)/C(=C\c3cc(C)n(-c4ccccc4F)c3C)C(=N)N2O1 | -0.896%
21 | CC1CN(C(=O)Nc2ccc3snnc3c2)c2ccccc21 (centres undefined) | -1.06%
22 | O=C(Nc1ccc(F)cc1)NC1CCN(Cc2nnnn2Cc2ccco2)CC1 | 0.188%
23 | CC(=O)c1c(C)[nH]c(C(=O)Nc2cccnc2)c1C | 2.65%
24 | C=CCn1c(SCc2c(C(=O)OC)sc(N)c2C(=O)OC)nnc1-c1ccc(Br)cc1 | 1.04%
25 | Cc1c(NC(=O)c2cc3ccccc3o2)cccc1-n1cnnn1 | 3.44%
26 | CC(Oc1cc2oc(=O)c3c(c2cc1Cl)CCC3)C(=O)NCc1cccnc1 (centres undefined) | -5.26%
27 | C[C@@H](C(=O)N1CCN(Cc2ccc3c(c2)OCO3)CC1)n1nnc2ccccc2c1=O | -2.25%
28 | COc1ccc(Cc2c(-c3ccc(OC)c(OC)c3)nc3c(C)cc(Br)cn23)c(C)c1 | -2.46%
29 | COc1cccc(CNC(=O)c2ccc(NC(=O)C3=CSCCO3)cc2)c1 | 2.21%
30 | Cc1cccc(C2c3[nH]c4ccccc4c3CCN2C(=O)CN2CCOC2=O)n1 (centres undefined) | 2.96%
31 | CC(=O)c1ccc(N2CCN(S(=O)(=O)c3c(C(=O)N4CCCC4)c(C)n(C)c3C)CC2)cc1 | 12.9%
32 | CSc1ccc(S(=O)(=O)N2CCC(C(=O)Nc3cccnc3)CC2)cc1 | 3.17%
33 | CCC(CO)[n+]1c(C)cc(/C=C2\Sc3ccccc3N2Cc2ccccc2)cc1C (centres undefined) | -8.96%
34 | CCOC(=O)c1ccc2c(c1)nc(SCc1cn3ccsc3n1)n2CC | -8.13%

Two entries from above, with tabs:
Row	Structure (SMILES)	activity
28	COc1ccc(Cc2c(-c3ccc(OC)c(OC)c3)nc3c(C)cc(Br)cn23)c(C)c1	-2.46%
29	COc1cccc(CNC(=O)c2ccc(NC(=O)C3=CSCCO3)cc2)c1	2.21%
